# Measurements published in doi:10.1101/137844.
# These are yes or no findings as the source states them, for the method shown. Binding seen in cells or lysates may run through a third protein. These calls come from enrichment with a bait or labelling near it, and not all partners need be listed. Where a sequence is shown, tags or fusion partners need not be part of it.
# T1: RCD1 GFP:WWE-linker fusion protein (from Arabidopsis) (Arabidopsis) (UniProt Q8RY59)
# T1 sequence (chain, WWE-linker region found phosphorylated (Fig. S3; Table S5)): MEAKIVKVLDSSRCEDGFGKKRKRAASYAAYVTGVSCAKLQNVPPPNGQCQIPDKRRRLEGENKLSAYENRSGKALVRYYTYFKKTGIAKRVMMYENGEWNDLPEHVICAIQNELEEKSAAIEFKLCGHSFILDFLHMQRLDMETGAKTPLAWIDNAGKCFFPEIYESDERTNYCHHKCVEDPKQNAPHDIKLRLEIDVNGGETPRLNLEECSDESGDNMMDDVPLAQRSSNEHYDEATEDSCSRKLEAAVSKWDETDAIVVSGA
# B1: SRO1 (endogenous, Arabidopsis) (protein, UniProt O82289 1-568)
# chain: MEAKIVKVSDSSYKDGLGKKRKHPGNYTPYDSGRSYAKLQWVLSPNSSTQKLEKRRNLDGENKVIVSENHVEKSLVRYFSYYKKTGVPKRVMFHENGEWIDLPDHILCDIRNDLEAKRATIEFNWCGRHFLLDFLHMYRLDLETGVKTQLAWIDIAGKCFFPETFDTLERDGCHHIRGEDPEQHDQREIKLHIEIDVNSGELPRLNLNVVTDESGDNMDDFQAVQRSSNGPNDEASEDSCSRELDDAVEKWDKTETDRFSGVKPAEEELDKDAVKQMFALGAATLGHVESLDVYQFSSEIAKARLSLFQKQADITKKHRGDANIRYAWVPAKKEVLSAVMMHGLGVGGAFIKKSMYGVGVHAANCPYFSARYCDIDDNGVRHMVLCRVIMGNMEPLRGDNTQYFTGGEEYDNGVDDVESPKHYLIWNMNMNTHIYPEFVVSFKLSIPNAEGNILPTTQSRHESSGLTLEGPKGSPSNEPGRVSNGGSGSEKNSSSSRRPRSPIMPFPLLFKAISSKIARKDMDLIIAGYQELREKKVSRKEFYKTLSMIVGDDDLLISTITGLQRSLG
# Target: T1, RCD1 GFP:WWE-linker fusion protein (from Arabidopsis) (Arabidopsis)
# Assay: affinity purification with mass spectrometry
row,binding,Molecule
1,binds,MUT9-like kinase 1 (enzyme)
2,binds,MUT9-like kinase 2 (enzyme)
3,binds,MUT9-like kinase 3 (enzyme)
4,binds,MUT9-like kinase 4 (enzyme)
5,binds,B1
